Literature values, collected in patent US20190077874A1, “METHODS AND COMPOSITIONS FOR THE TREATMENT OF TUBEROUS SCLEROSIS” (National Tuberous Sclerosis Association, Inc., priority 2017, published 2019).
At least one structure is not confirmed: it was looked up by name or label, or the drawing left a doubt.

Tested on: TSC mouse model
Settings: Zhang et al.; cited from earlier work

## CO[C@H]1C[C@@H]2CC[C@@H](C)[C@@](O)(O2)C(=O)C(=O)N2CCCC[C@H]2C(=O)O[C@H]([C@H](C)C[C@@H]2CC[C@@H](O)[C@H](OC)C2)CC(=O)[C@H](C)/C=C(\C)[C@@H](O)[C@@H](OC)C(=O)[C@H](C)C[C@H](C)/C=C/C=C/C=C/1C [rapamycin]
  survival: improved survival
